Reference: article PMC7797037
Results are given in words; binding and its absence hold for the method and conditions named. Binding seen in cells or lysates may run through a third protein. Some entries that bind do so weakly or less than the wild type. For part of these data: Where a sequence is shown, tags or fusion partners need not be part of it. One block for each molecule: values may come before it.

Sequences of proteins named here, by UniProt entry; tags and fusion partners are left off. A change or cut given only in a name is not applied to a line headed by its entry.
UniProt A4D1E9: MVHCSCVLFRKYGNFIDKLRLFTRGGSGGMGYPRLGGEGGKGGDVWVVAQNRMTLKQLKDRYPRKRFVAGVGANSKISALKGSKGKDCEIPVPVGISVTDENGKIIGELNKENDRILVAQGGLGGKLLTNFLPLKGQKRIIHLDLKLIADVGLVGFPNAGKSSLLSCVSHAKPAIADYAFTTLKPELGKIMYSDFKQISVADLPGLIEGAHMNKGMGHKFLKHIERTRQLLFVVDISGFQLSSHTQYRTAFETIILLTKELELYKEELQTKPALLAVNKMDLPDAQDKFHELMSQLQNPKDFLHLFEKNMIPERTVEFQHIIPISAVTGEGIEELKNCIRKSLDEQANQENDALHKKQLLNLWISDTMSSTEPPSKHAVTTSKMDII
UniProt Q7Z6M4: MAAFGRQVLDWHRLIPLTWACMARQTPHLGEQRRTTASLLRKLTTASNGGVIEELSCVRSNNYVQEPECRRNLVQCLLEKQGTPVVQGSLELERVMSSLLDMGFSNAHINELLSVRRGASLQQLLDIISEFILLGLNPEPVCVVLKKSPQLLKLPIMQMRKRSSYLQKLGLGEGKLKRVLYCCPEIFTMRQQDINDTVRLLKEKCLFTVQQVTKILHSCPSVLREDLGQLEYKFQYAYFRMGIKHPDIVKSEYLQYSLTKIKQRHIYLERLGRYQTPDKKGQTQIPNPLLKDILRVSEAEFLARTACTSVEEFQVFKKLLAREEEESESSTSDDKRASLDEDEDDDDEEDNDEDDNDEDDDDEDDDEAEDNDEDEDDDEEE

Key:
[1] = molecular target: T1, GTPBP5^S238A::FLAG (human) (UniProt Q9H4K7); assay: co-IP; FLAG-IP from mitochondrial lysate, buffers with 5 mM MgCl2, elution with 3X FLAG peptide; input and eluate by western blot; no nucleotide or RNase added
T1 sequence: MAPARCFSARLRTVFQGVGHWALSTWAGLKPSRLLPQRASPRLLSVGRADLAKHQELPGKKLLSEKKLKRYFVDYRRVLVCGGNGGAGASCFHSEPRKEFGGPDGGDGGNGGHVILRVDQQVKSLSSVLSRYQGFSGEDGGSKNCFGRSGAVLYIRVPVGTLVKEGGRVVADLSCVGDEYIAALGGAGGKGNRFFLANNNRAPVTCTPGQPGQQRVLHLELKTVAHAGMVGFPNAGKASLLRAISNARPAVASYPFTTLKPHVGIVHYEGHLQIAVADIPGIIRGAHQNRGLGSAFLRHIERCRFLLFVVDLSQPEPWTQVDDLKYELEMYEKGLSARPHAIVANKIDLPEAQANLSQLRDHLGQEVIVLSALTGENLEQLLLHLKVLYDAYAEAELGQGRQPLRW

[2] = molecular target: GTPBP10::FLAG (human) (UniProt A4D1E9); assay: as above
[3] = molecular target: GTPBP10::FLAG (human) (UniProt A4D1E9); assay: co-IP; FLAG-IP as above with 20 mM GMPPNP added to the mitochondrial lysate during lysis before the IP; western blot
[4] = molecular target: GTPBP10::FLAG (human) (UniProt A4D1E9); assay: co-IP; FLAG-IP as above from lysates preincubated with GTP instead of GMPPNP; western blot
[5] = molecular target: T2, GTPBP5::FLAG (C-terminal FLAG-tagged GTPBP5) (human) (UniProt Q9H4K7); assay: co-IP; FLAG-IP from mitochondrial lysate, buffers with 5 mM MgCl2, elution with 3X FLAG peptide; input and eluate by western blot; no nucleotide or RNase added
T2 sequence: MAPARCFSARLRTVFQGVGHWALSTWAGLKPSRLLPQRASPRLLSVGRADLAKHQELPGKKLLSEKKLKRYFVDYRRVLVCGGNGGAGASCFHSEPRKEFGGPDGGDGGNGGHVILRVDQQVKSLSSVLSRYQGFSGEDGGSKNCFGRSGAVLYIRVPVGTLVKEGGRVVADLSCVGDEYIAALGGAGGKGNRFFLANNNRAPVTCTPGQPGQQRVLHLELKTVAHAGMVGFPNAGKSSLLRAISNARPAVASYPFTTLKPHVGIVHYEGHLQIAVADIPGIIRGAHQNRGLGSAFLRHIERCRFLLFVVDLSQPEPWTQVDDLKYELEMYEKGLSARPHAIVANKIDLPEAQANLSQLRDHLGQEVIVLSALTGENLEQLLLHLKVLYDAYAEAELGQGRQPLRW

[6] = molecular target: T2, GTPBP5::FLAG (C-terminal FLAG-tagged GTPBP5) (human); assay: co-IP; FLAG-IP as above with 20 mM GMPPNP added to the mitochondrial lysate during lysis before the IP; western blot
[7] = molecular target: T2, GTPBP5::FLAG (C-terminal FLAG-tagged GTPBP5) (human); assay: condition: only lysate pre-treated with RNase A (20 μg/ml); co-IP; FLAG-IP as above from mitochondrial lysate pre-treated with RNase A (20 μg/ml) during lysis before the IP; western blot
[8] = molecular target: T2, GTPBP5::FLAG (C-terminal FLAG-tagged GTPBP5) (human); assay: co-IP; FLAG-IP from mitochondrial lysate, buffers with 5 mM MgCl2, elution with 3X FLAG peptide; input and eluate by western blot; no nucleotide or RNase added; remark: listed apart in the source

binding [1]: no binding
binding [2]: no binding
binding [3]: no binding
binding [4]: no binding
Molecule: MTERF4:NSUN4 complex (from UniProt Q7Z6M4 43-381; Q96CB9 26-384)

binding [5]: binds
binding [7]: no binding
Molecule: bL28m (from UniProt Q13084 56-256)
binding [6]: no binding (condition: with 20 mM GMPPNP)

binding [8]: no binding
B1: MRM3 (enzyme, UniProt Q9HC36 41-420)
chain: VFPSGEVVEQKRAPGKQPRKAPSEASAQEQREKQPLEESASRAPSTWEESGLRYDKAYPGDRRLSSVMTIVKSRPFREKQGKILLEGRRLISDALKAGAVPKMFFFSRLEYLKELPVDKLKGVSLIKVKFEDIKDWSDLVTPQGIMGIFAKPDHVKMTYPKTQLQHSLPLLLICDNLRDPGNLGTILRSAAGAGCSKVLLTKGCVDAWEPKVLRAGMGAHFRMPIINNLEWETVPNYLPPDTRVYVADNCGLYAQAEMSNKASDHGWVCDQRVMKFHKYEEEEDVETGASQDWLPHVEVQSYDSDWTEAPAAVVIGGETYGVSLESLQLAESTGGKRLLIPVVPGVDSLNSAMAASILLFEGKRQLRGRAEDLSRDRSYH

binding [8]: no binding
B2: FASTKD4 (protein, UniProt Q969Z0 108-631)
chain: SHLLSEKPEDKGLLIQDAHFHQLLCLLNSQIASVWHGTLSKLLGSLYALGIPKASKELQSVEQEVRWRMRKLKYKHLAFLAESCATLSQEQHSQELLAELLTHLERRWTEIEDSHTLVTVMMKVGHLSEPLMNRLEDKCLELVEHFGPNELRKVLVMLAAQSRRSVPLLRAISYHLVQKPFSLTKDVLLDVAYAYGKLSFHQTQVSQRLATDLLSLMPSLTSGEVAHCAKSFALLKWLSLPLFEAFAQHVLNRAQDITLPHLCSVLLAFARLNFHPDQEDQFFSLVHEKLGSELPGLEPALQVDLVWALCVLQQAREAELQAVLHPEFHIQFLGGKSQKDQNTFQKLLHINATALLEYPEYSGPLLPASAVAPGPSALDRKVTPLQKELQETLKGLLGSADKGSLEVATQYGWVLDAEVLLDSDGEFLPVRDFVAPHLAQPTGSQSPPPGSKRLAFLRWEFPNFNSRSKDLLGRFVLARRHIVAAGFLIVDVPFYEWLELKSEWQKGAYLKDKMRKAVAEELAK
